From PMC7819943, “Rice protein-binding microarrays: a tool to detect cis-acting elements near promoter regions in rice”
The other results are listed elsewhere or left out.

Amino acid sequences for entries named in this document (tags omitted).
UniProt Q0JBA9, entry or part of it: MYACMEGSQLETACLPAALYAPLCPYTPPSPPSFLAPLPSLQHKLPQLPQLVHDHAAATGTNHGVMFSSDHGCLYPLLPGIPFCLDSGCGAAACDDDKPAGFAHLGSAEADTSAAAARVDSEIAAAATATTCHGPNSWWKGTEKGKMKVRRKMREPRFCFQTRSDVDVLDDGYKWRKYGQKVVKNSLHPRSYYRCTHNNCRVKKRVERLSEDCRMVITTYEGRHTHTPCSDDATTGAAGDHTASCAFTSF

target: OsWRKY34 (Oryza sativa, UniProt Q0JBA9 1-250); assay: protein-binding microarray (RPBM); PBS, 2% BSA, 51.3 ng/ul salmon testes DNA, 50 uM zinc acetate, 200 nM TF, 25 C, 1 h; high values mean tight binding; conditions: protein: recombinant; tags: N-terminal polyhistidine and DsRed monomer fusion (pET32a); label: CyDye5-dUTP incorporated in the synthesized complementary strand; 3' TTTTT single-stranded linker to array surface; dsDNA, one strand shown
Method in brief: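 Binding signal is reported as fluorescence intensity per feature (arbitrary units) from an Axon 4000B scanner. Incubation used 200 nM of each Ni–NTA-purified, N-terminally polyhistidine- and DsRed-fused transcription factor from E. coli BL21-CodonPlus on a double-stranded custom Agilent array for 1 h at 25 °C, with 50 µM zinc acetate in the buffer, followed by washing.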

| Sequence | binding signal |
| --- | --- |
| AATATGGACTCTATACTCTATTTCTAATATTCCTTATTTTCGGAGTCACCTAGTGCAG | 8840 fluorescence intensity (a.u.) |
| CGCGCCGCCGTCCCCGCCTCCGCCTCACACCGCGGCCCCTCGGAGTCACCTAGTGCAG | 9500 ± 862 fluorescence intensity (a.u.) |
| TTCACCTACGCTCATGGAGACTCTCACTATCTTTATAAGACGGAGTCACCTAGTGCAG | 8960 fluorescence intensity (a.u.) |
| TTGATCAGGTCGAGGAGGAATATCCAGCGTTAACTTATTACGGAGTCACCTAGTGCAG | 9060 fluorescence intensity (a.u.) |
| CATTCTAGCATTTTTCATATTCATATTGGTATTAATGAATCGGAGTCACCTAGTGCAG | 10800 fluorescence intensity (a.u.) |
| TTTCTCCGGTGTTATGCGTTGCGTGGTGCATTTCTTTGTTCGGAGTCACCTAGTGCAG | 8510 fluorescence intensity (a.u.) |
| CTTACCAATATTTGACAATTTCAATAGTGCTTAGTGTTTACGGAGTCACCTAGTGCAG | 8560 fluorescence intensity (a.u.) |
| ACCTATATGATTCATCCTCACTTAGTATTATTTCTCTCTTCGGAGTCACCTAGTGCAG | 9030 fluorescence intensity (a.u.) |
| CTCTCTCCCTTGATCTCTTCGCTGCGAAGCCATCTTCTTCCGGAGTCACCTAGTGCAG | 9920 fluorescence intensity (a.u.) |
| CAACATCCACCTGTTTCTATCCCAACCATTCTTACCAACACGGAGTCACCTAGTGCAG | 10500 fluorescence intensity (a.u.) |
| CATGCGCGCGCATTGCGCCTTCTGCCTTTCAGGCTTTCACCGGAGTCACCTAGTGCAG | 9210 fluorescence intensity (a.u.) |
| GCGGCCACCCGCCTCGCCATCGCCAACCTCTCCACGCGTCCGGAGTCACCTAGTGCAG | 8600 fluorescence intensity (a.u.) |
| TCCTGCAAAATCCTCGCGCTGATCAGCTGATTTTTTTTTCCGGAGTCACCTAGTGCAG | 8520 fluorescence intensity (a.u.) |
| GTCGTCGCGCTACTTCCCGGCGGCGTCGTGGGGCGGGCTGCGGAGTCACCTAGTGCAG | 8030 fluorescence intensity (a.u.) |
| CTCTACCACGCTGTCACGGTGCTAAAATCCCGGAAACCCACGGAGTCACCTAGTGCAG | 8880 fluorescence intensity (a.u.) |
| CCCTGATTTATGTGCAAAAACTACTTTAAACTGTTTTTTCCGGAGTCACCTAGTGCAG | 8370 fluorescence intensity (a.u.) |
| GTTGGGGAGAAGGCGGCGGCGGCGGCGGAGGAGGAGGCCACGGAGTCACCTAGTGCAG | 8330 fluorescence intensity (a.u.) |
| TTTCGTAGCTACTCCTAGATGTCGCATGTTATACGCTTTACGGAGTCACCTAGTGCAG | 8830 fluorescence intensity (a.u.) |
| ATACATTTTTGATACATTCTCAGTTTTTGTTTTGTATTAGCGGAGTCACCTAGTGCAG | 12100 fluorescence intensity (a.u.) |
| ATATATCTCCCATAAACTATTTTTCTTACGGTACTGTCATCGGAGTCACCTAGTGCAG | 9410 fluorescence intensity (a.u.) |
| CACACCATTCGCCTGCGTGCTAGTATTAGCCAGTCAATGTCGGAGTCACCTAGTGCAG | 8310 fluorescence intensity (a.u.) |
| TAGTGTTGGTTGTTAGGGATATGTTTTGGGCAATCTCGGCCGGAGTCACCTAGTGCAG | 10800 fluorescence intensity (a.u.) |
| ACTCAAATGTGTTTTTCTTTCACAAGTTGCCGTTAAAAATCGGAGTCACCTAGTGCAG | 9330 fluorescence intensity (a.u.) |

Two entries from above, set out differently.
CGCGCCGCCGTCCCCGCCTCCGCCTCACACCGCGGCCCCTCGGAGTCACCTAGTGCAG
  binding signal = 9500 ± 862 fluorescence intensity (a.u.)
TTGATCAGGTCGAGGAGGAATATCCAGCGTTAACTTATTACGGAGTCACCTAGTGCAG
  binding signal = 9060 fluorescence intensity (a.u.)
